Among the data in article PMC4307302 are binding values, retold here.

Sequences of proteins named here, by UniProt entry; tags and fusion partners are left off.
UniProt P37238: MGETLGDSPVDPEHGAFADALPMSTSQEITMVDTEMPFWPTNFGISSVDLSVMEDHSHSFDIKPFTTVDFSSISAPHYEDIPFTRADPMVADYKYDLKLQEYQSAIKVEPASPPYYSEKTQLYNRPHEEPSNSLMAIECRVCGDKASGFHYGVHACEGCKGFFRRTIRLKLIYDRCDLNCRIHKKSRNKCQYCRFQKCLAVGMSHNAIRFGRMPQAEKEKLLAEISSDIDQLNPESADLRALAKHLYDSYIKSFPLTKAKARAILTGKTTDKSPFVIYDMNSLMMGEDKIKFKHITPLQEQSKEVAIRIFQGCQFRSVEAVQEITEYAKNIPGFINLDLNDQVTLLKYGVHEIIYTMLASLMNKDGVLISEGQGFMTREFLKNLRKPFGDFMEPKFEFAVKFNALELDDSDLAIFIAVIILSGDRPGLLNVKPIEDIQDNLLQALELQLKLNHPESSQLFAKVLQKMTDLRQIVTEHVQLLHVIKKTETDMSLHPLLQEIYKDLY

The target of this assay is T1, Peroxisome proliferator-activated receptor gamma coactivator 1 (mouse (endogenous in C2C12)) (UniProt O70343).
T1 sequence: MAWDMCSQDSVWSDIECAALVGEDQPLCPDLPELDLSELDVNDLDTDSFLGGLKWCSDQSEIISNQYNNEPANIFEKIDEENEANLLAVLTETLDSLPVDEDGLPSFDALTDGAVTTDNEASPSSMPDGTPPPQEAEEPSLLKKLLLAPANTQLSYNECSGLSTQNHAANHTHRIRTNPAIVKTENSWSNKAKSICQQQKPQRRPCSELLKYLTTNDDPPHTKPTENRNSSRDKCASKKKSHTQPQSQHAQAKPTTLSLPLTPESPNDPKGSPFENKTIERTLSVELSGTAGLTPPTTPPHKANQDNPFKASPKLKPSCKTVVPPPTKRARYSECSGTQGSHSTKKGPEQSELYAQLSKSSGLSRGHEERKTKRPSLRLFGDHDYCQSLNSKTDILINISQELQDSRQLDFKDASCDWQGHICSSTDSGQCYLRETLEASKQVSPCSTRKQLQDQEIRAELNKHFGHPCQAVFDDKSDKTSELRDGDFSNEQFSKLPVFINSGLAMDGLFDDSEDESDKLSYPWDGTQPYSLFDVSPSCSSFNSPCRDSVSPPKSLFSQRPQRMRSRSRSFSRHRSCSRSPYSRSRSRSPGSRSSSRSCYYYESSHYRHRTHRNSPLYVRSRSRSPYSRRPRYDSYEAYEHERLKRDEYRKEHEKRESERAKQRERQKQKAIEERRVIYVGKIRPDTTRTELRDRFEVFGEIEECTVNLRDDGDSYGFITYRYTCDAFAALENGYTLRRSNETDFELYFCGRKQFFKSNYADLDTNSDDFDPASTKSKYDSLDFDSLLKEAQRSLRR
In words: co-IP; lysates of differentiated C2C12 cells incubated overnight with PGC-1α antibody (Abcam) and protein A/G plus agarose beads; eluates blotted for PPARγ, nitrotyrosine and PGC-1α; cells treated 24 h with SNP (30 μM), Hcy (250 μM) and Hcy thiolactone (1 mM) as indicated.

These are yes or no findings as the source states them, for the method shown. Binding seen in cells or lysates may run through a third protein. Some entries that bind do so weakly or less than the wild type.

For “Peroxisome proliferator-activated receptor gamma (from UniProt P37238 1-505)”, the binding entry is given as “binds”.
